Data from article PMC12037035.
These are yes or no findings as the source states them, for the method shown. In cells and extracts the contact can be indirect. Some results given as binding are weak or reduced against the parent protein; the word gives no strength. For some assays here: Sequences can lack the tags named with a protein.

T1: CD70 with C-terminal triple repeat Strep II tag (full length, expressed in HEK293-E+ cells) (human) (UniProt P32970)
T1 sequence: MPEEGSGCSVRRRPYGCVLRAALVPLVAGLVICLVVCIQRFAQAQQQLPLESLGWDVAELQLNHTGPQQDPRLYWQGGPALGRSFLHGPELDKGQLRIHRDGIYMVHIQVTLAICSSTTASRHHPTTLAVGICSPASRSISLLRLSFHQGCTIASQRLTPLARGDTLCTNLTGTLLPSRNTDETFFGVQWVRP

T2: CD20 (MS4A1), endogenous in BJAB B cells (human (endogenous in BJAB)) (UniProt P11836)
T2 sequence: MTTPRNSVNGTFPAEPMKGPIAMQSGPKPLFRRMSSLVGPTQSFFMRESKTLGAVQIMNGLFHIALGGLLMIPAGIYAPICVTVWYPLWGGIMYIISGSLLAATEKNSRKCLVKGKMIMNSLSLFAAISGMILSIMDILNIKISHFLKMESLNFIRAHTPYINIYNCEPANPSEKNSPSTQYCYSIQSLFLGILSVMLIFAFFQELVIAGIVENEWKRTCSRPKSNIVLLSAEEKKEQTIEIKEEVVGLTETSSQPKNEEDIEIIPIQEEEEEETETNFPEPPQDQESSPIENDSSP

B1: CD20-His (CD20 with C-terminal His6 tag, expressed in HEK293-E+ cells) (protein, UniProt P11836 1-297)
chain: T2 sequence
B2: CD70, endogenous in BJAB B cells (protein, UniProt P32970 1-193)
chain: T1 sequence

Key:
[1] = molecular target: T1, CD70 with C-terminal triple repeat Strep II tag (full length, expressed in HEK293-E+ cells) (human); assay: pull-down; CD70 (triple Strep II tag) and CD20-His6 coexpressed in HEK293-E+ cells (DNA ratio 1:5); lysis in 1% DDM, 50 mM K-PO4 pH 7.8, 200 mM KCl; CD70 held on Streptactin resin, eluted with 7 mM desthiobiotin, then Superose 6 gel filtration; western blot with anti-His and anti-Strep; 4 °C
[2] = molecular target: T2, CD20 (MS4A1), endogenous in BJAB B cells (human (endogenous in BJAB)); assay: proximity ligation; in situ PLA (Duolink FarRed) on PFA-fixed BJAB cells with primary antibodies against CD20 and CD70; endogenous proteins

Binder	binding [1]	binding [2]
B1	binds	–
B2	–	binds
